Laboratory results taken from PubChem BioAssay AID651595 (National Center for Advancing Translational Sciences (NCATS), 2012).
The campaign covered roughly 1,100 compounds. Fewer than 10 were called active. About 6% were inconclusive and are not listed. The call rests on the fitted dose curve; in most records, active means well fitted cell-killing curve with a large enough effect; inconclusive means small, poorly fitted or top-dose-only effect; inactive means flat fitted curve, though single readings scatter. This is one part of the list.

assay: qHTS of Nrf2 Activators: Hit Validation in Cytotox Assay; conditions: Cell viability counter-screen for Nrf2 activator hits; series mostly up to 46.1 µM; activity change, negative = cytotoxicity: at the top concentration;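 further: compound exposure lasted 24 hours before the ATP readout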; on activity change, negative = cytotoxicity: 0% is about no effect
From the text: Many diseases have some form of oxidative stress injury and ties to inflammation, causing a host of problems for the patient. The antioxidant response element (ARE) plays an important role in alleviating the harmful effects of oxidative stress. The antioxidant response element (ARE) is a transcriptional regulatory element involved in the activation of genes coding for a number of antioxidant proteins and detoxifying enzymes. These enzymes work in concert to protect tissues from oxidative insults and chemical toxicities in human hepatocytes and immune cells. The protective effects of ARE activation are primarily triggered through Nrf2 (NF-E2-related factor) binding to and activating AREs. It is known that Nrf2 controls the production of over 250 antioxidant and detoxification proteins (Hu et al., 2006), thereby protecting tissues by increasing cellular antioxidant content and suppressing inflammatory signaling pathways. The transcription factor Nrf2 is a central link between oxidative chemicals, such as phenolic antioxidants and electrophilic compounds, and the activation of ARE. Nrf2 levels are constitutively low as a consequence of its interaction with Keap1, which targets its degradation (Zipper and Mulcahy, 2002). Electrophiles react with key cysteine residues in Keap1, releasing Nrf2 and allowing its translocation to the nucleus. Once within the nucleus, Nrf2 complexes with coactivators such as p300, and binds to the AREs to induce gene transcription of cytoprotective enzymes, resulting in the prevention of toxicity. Activation of Nrf2 protects tissues by increasing cellular antioxidant content and suppressing inflammatory signaling pathways. Identifying novel and potent Nrf2 activators by using the AREc32 cell line to detect ARE activation by small molecules will lead to the identification and development of probes to study protective pathways in multiple tissues. These specific probes are essential to study the ARE pathway, and eventually to determine whether this pathway does activate genes that could protect against a host of diseases, including cardiovascular diseases, obesity, diabetes, Alzheimer's, and Parkinson's disease.
This project's aim is to identify novel and potent Nrf2 activators by using the AREc32 cell line to detect ARE activation by small molecules, which will lead to the identification and development of probes to study the ARE pathway. Cytotoxic compounds are flagged as active, and inactivity is desired in this assay.
NIH Chemical Genomics Center [NCGC]
NIH Molecular Libraries Probe Centers Network [MLPCN]
Assay Submitter (PI): Curtis Klaassen, University of Kansas Medical Center
Cell viability after compound treatment was measured using a luciferase-coupled ATP quantitation assay (CellTiter-Glo, Promega) in AREc32_fluc cells. The change of intracellular ATP content indicates the number of metabolically competent cells after compound treatment. AREc32_fluc cells were harvested from T225 flask and resuspended in phenol red free OPTI-MEM medium with 5% FBS. Then 5 microL of 200,000 cells/ml resuspended cells was dispensed into each well of white, solid bottom, 1536-well tissue culture-treated plates using a Multidrop Combi dispenser. After overnight culture at 37 degrees C with 5% CO2, a total of 23 nL of compounds at 7 selected concentrations from the cherry pick or positive control (40 uM stock of CDDO-IM and 2 mM of tBHQ) in DMSO was transferred to each well of the assay plate using a pintool (Kalypsys, San Diego, CA), and the plates were further incubated at 37 degrees C with 5% CO2 for 24 hours. After that, 4 microL of CellTilter-GloTM luminescent substrate mix (Promega) was added to each well. The plate was incubated at room temperature for 30 minutes. The plates were measured on a ViewLux plate reader (PerkinElmer) with clear filter.
Potency means the concentration at half of the fitted maximal effect.

SMILES | activity change, negative = cytotoxicity | Potency
CNC(=O)C1CCN(S(=O)(=O)c2c(C)noc2/C=C/c2ccccc2F)CC1 | inactive: 6.61% | 
CCn1c(/C=C/c2ccccc2F)nc2ccccc2c1=O | inactive: -2.4% | 
Fc1cccc(Nc2cc(-n3cccn3)ncn2)c1 | inactive: -0.476% | 
Fc1ccc(Nc2nc3ccccc3n3cnnc23)c(F)c1 | inactive: -2.38% | 
COc1ccccc1-c1nnc(NC(C)=O)s1 | inactive: -1.66% | 
CSc1ccc(C2NN=C(c3ccccc3)S2)cc1 (configuration not stated) | inactive: -0.741% | 
Cc1cc(C(=O)Nc2cc(Br)ccc2O)on1 | inactive: 11.2% | 
COC(=O)c1cc2nc(-c3ccccc3)cc(C(F)(F)F)n2n1 | inactive: 0.611% | 
O=[N+]([O-])c1ccccc1C=NNc1ccccc1 | inactive: -0.726% | 
CCN(C(=O)c1ccco1)c1nc(CC(=O)Nc2ccc(Cl)cc2)cs1 | inactive: -1.58% | 
CC(C)C(=O)Nc1nnc(-c2ccco2)s1 | inactive: 6.12% | 
O=C(/C=C/c1ccco1)Nc1cccc(S(=O)(=O)N2CCOCC2)c1 | inactive: 6.93% | 
c1ccc2nc3c(ccc4ccccc43)cc2c1 | inactive: 3.28% | 
O=C1C(Cl)=C(Nc2ccccc2)C(=O)c2ccccc21 |  | active: 16.4 µM
CC(C)c1ccc(NC(=O)c2cc(Br)ccc2Br)cc1 | inactive: 0.0039% | 
COC(=O)c1ccsc1NC(=O)CSc1nnnn1Cc1ccccc1 | inactive: 1.32% | 
COc1ncccc1-c1cc2nc(NCCNC(C)=O)n(C)c(=O)c2s1 | inactive: 4.61% | 
CCOC(=O)COn1c(=O)c(-c2ccco2)[n+]([O-])c2ccccc21 | inactive: 5.99% | 
O=C(Cn1ncc(Cl)c(Cl)c1=O)NC1CCS(=O)(=O)C1 (configuration not stated) | inactive: 8.46% | 
COc1ccccc1CNC(=O)COC(=O)c1cc(-c2ccco2)nc2ccccc12 | inactive: -1.42% | 
O=C(Nc1ccccc1F)c1cc(-c2ccco2)nc2ccccc12 | inactive: 9.87% | 
NC(=O)c1ccsc1NC(=O)COC(=O)[C@@H]1CCCN1C(=O)c1cccs1 | inactive: 1.09% | 
COc1ccc(Cl)cc1NC(=O)C1COc2ccccc2O1 (configuration not stated) | inactive: 4.89% | 
COC(=O)c1sccc1NC(=O)c1ccc(OC)c(OC)c1 | inactive: 4.1% | 
Oc1ccc(CNc2ccccc2O)cc1 | inactive: 3.82% | 
Fc1cccc(Cc2c(-c3ccco3)nc3ccc(Br)cn23)c1 | inactive: -15.8% | 

Four of the compounds above, with tabs.
SMILES	activity change, negative = cytotoxicity	Potency
COc1ccccc1-c1nnc(NC(C)=O)s1	inactive: -1.66%	
CSc1ccc(C2NN=C(c3ccccc3)S2)cc1 (configuration not stated)	inactive: -0.741%	
Cc1cc(C(=O)Nc2cc(Br)ccc2O)on1	inactive: 11.2%	
COC(=O)c1cc2nc(-c3ccccc3)cc(C(F)(F)F)n2n1	inactive: 0.611%	

Next entries

SMILES | activity change, negative = cytotoxicity | Potency
N/C(=N\OC(=O)c1cccc2ccccc12)c1ccc(Br)cc1 | inactive: 0.0122% | 
S=c1[nH]nc(-c2cccnc2)n1/N=C/C(Cl)=C\c1ccccc1 | inactive: -5.32% | 
O=C(Nc1ncc2c(n1)-c1ccccc1CC2)c1ccccc1 | inactive: 5.98% | 
CCN(CC)c1ccc2c(c1)oc(=O)c1c(Cl)cc(=O)oc12 | inactive: 21.8% | 
CC(=O)c1ccccc1NC(=O)COC(=O)/C=C/c1ccc(C)o1 | inactive: 11.2% | 
Cc1ccc(S(=O)(=O)CCSC(=N)N)cc1 | inactive: -2.62% | 
Cc1c(Cl)cccc1N=c1c([N+](=O)[O-])nn(-c2ccccc2)n1O | inactive: 3.05% | 
O=C(Nc1ccccn1)c1ccc(Cl)c([N+](=O)[O-])c1 | inactive: 0.552% | 
COc1ccc(NC(=O)CSc2ccc(-c3ccco3)nn2)c(OC)c1 | inactive: 1.32% | 
CCN=c1scc(C)n1/N=C/c1ccsc1 | inactive: 7.84% | 
COc1ccccc1NC(=O)c1ccc(Cl)c(S(=O)(=O)NCc2ccco2)c1 | inactive: 0.292% | 
O=C(NNC(=O)C12CC3CC(CC(C3)C1)C2)c1cccc([N+](=O)[O-])c1 | inactive: 2.25% | 
Cc1ccc(S(=O)(=O)c2nc(S(C)(=O)=O)sc2N2CCCCC2C)cc1 (configuration not stated) | inactive: -0.821% | 
CSc1c(C#N)c(N)nc2sc(C(=O)c3ccccc3)c(N)c12 | inactive: 6.05% | 
[O-][n+]1onc2c3cc(-c4ccccc4)nnc3ccc21 | inactive: 0.985% | 
O=C1CC(C(=O)Nc2ccc(Br)cc2)S/C(=N\N=C\c2ccco2)N1 (configuration not stated) | inactive: 1.59% | 
Cc1nn2c(-c3ccco3)nnc2c2ccccc12 | inactive: 6.15% | 
Clc1ccsc1-c1csc(-c2cccnc2)n1 | inactive: 2.62% | 
Nc1ccc(S(=O)(=O)Nc2nccc(/C=C/c3cccc(Br)c3)n2)cc1 | inactive: 10.6% | 
C#CCSc1nnc(-c2sc3ccccc3c2Cl)o1 | inactive: 0.211% | 
Nc1ccccc1C=C1Cc2ccccc2C1=O | inactive: -10.1% | 
Cc1ccc(Cl)c2sc(NC(=O)C3CC3)nc12 | inactive: 8.93% | 
O=C(Cn1cnc2ccccc21)N/N=C/C(Br)=C/c1ccccc1 | inactive: -8.42% | 
O=C(Nc1ccc(Cl)cn1)c1cnn2cccnc12 | inactive: 8.42% | 
CN1CCN(c2sc(S(C)(=O)=O)nc2S(=O)(=O)c2ccc(Cl)cc2)CC1 | inactive: 7.61% | 
CC(C)(C)OC(=O)NCCC(=O)N/N=C/c1cccc2cccnc12 | inactive: -0.796% | 

SMILES | activity change, negative = cytotoxicity | Potency
O=C(N=Nc1c(O)[nH]c2ccc(Br)cc12)c1ccco1 | inactive: -0.259% | 
c1ccc(-c2noc(-c3cccc4ccccc34)n2)cc1 | inactive: 1.28% | 
COC(=O)c1ccc2nc(-c3ccco3)c(Cc3cccc(Cl)c3)n2c1 | inactive: 0.488% | 
O=c1c(-c2ccco2)[n+]([O-])c2ccccc2n1OCc1c(F)cccc1F | inactive: -1.1% | 
CC(C)CCNC(=O)c1cc(-c2ccco2)nc2ccccc12 | inactive: 2.06% | 
COC(=O)C1=C(C)N(C)C(=O)/C1=C\c1ccco1 | inactive: 6.09% | 
O=C(Nc1ccc(F)cc1)c1nsc(Cl)c1Cl | inactive: 1.43% | 
CCCC(=O)Nc1sc(C)c(C)c1C#N | inactive: -3.29% | 
Fc1cc(F)c2nc(Nc3nc4cc5c(cc4s3)OCO5)sc2c1 | inactive: -28.7% | 
CNc1ccc(Br)cc(C(=O)/C=C/c2cccc(Cl)c2Cl)c1=O | inactive: -3.24% | 
N#Cc1nc(-c2ccco2)oc1N1CCCC1 | inactive: 10.4% | 
N#CC(C(=O)NCc1ccco1)c1nc2ccccc2nc1N1CCOCC1 (configuration not stated) | inactive: -1.99% | 
COC(=O)c1sccc1NC(=O)c1ccccc1F | inactive: 2.7% | 
COC(=O)c1ccccc1NC(=O)COc1ccccc1[N+](=O)[O-] | inactive: -3.65% | 
N#C/C(=C1/C(=O)Nc2ccc(Br)cc21)c1ccccn1 | inactive: 1.23% | 
O=c1cc(COc2ccccc2[N+](=O)[O-])nc2sccn12 | inactive: -3.42% | 
CC(/C=N/n1c(-c2ccncc2)n[nH]c1=S)=C\c1ccco1 | inactive: 0.506% | 
c1ccc(-c2cnc(-c3ccccc3)nn2)cc1 | inactive: -0.44% | 
COc1cc(/C=N/Nc2nc3ccccc3s2)ccc1OC(=O)c1ccccc1F | inactive: 2.19% | 
COc1ccc(Nc2nnc(SCC(=O)c3cc4ccccc4o3)s2)cc1 | inactive: 10.7% | 
Cc1cc(SCC(=O)c2cccs2)nc2ccccc12 | inactive: -9.71% | 
C/C(=N\NC(=S)Nc1cccc(C)c1)c1ccco1 | inactive: -0.155% | 
O=C(CCS(=O)(=O)c1ccccc1)Nc1nc(-c2ccccn2)cs1 | inactive: 2.62% | 
O=C(NCc1ccco1)c1n[nH]c(=O)c2ccccc12 | inactive: -3.92% | 
COc1ccccc1Cc1c(-c2ccco2)nc2c3ccccc3ccn12 | inactive: -27.5% | 
